Some of the results follow. The main result of the screen is listed elsewhere. These columns were measured beside it and carry no call. Compounds called inactive in the main read-out are mostly missing here. Potencies come from curve fits of mixed quality, noted in brackets.

The nature of the assay: Cell signaling CRE-BLA (Fsk stim). The note with it: CHO CRE-bla reporter (cAMP response element driving beta-lactamase), forskolin EC10, beta-lactamase ratio; measured here: 460 nm blue channel. The source says:
NIH Molecular Libraries Screening Centers Network [MLSCN]
NIH Chemical Genomics Center [NCGC]
Assay Provider: Marshall W. Nirenberg, U.S. National heart lung & blood institute
Memories persist for different lengths of time, from seconds or minutes to a lifetime. There are two kinds of memory: short-term memory (STM) and long-term memory (LTM). STM lasts for minutes to hours, which maybe mediated by modifications of molecules involved in synaptic functions. LTM lasts for days or longer, and may be due to the formation of new synapses or restructuring of existing synapses. LTM, but not STM, requires gene transcription and synthesis of proteins. CREB (cyclic-AMP Responsive Element Binding Protein) is one of the candidates plays an important role for enhancement of some types of LTM. CREB, a family of transcription factors, regulates the transcription of genes containing cAMP Responsive Elements (CRE). CRE is a nucleotide sequence often found in the promoter regions of genes that are binding sites for CREB.
Using a beta-lactamase reporter-gene under control of cAMP responsive element, a cell-based assay [CellSensor(TM) CRE-bla CHO developed by Invitrogen Corp.] was used to measure forskolin-induced signaling. Library compounds were measured for their ability to modulate positively or negatively the action of EC10 NKH 477, a water soluble forskolin, on reporter gene activity. Compounds were screened in a titration series in 1536-well format. Positive and negative modulators were identified based on the AC50 values derived from the screening data.
NCGC Assay Protocol Summary
2000 cells/5uL in Opti-MEM medium containing 0.5% dialyzed FBS, 0.1 mM NEAA, 1 mM sodium pyruvate and 10 mM HEPES was dispensed into 1536-well plates and cells were cultured at 37 degrees Celsius overnight. […] And then the plates were incubated at 37 degrees Celsius for 3 hours. 1 uL of CCF4-dye mixture was added to each well. After incubated at room temperature for 2 hours the plates were measured on an EnVision plate reader at Excitation 405nm, Emission1=460nm and Emission 2=530nm. The %Activity was determined from the ratio of 460nm/530nm.
Keywords: NIH Roadmap, MLSCN, MLSMR, qHTS, NCGC, CRE, beta-lactamase reporter-gene assay.
As usually defined, the AC50 is the concentration giving half of the maximal activity seen. With `O=C1CCCc2nn(-c3ccccc3)c(-c3ccncc3)c21`, the AC50 was 0.2 µM [rising, full curve]. Under `CCCS(=O)(=O)O` stands 1 µM [falling, single point]; under `CCOC(=O)/C=C1\NC(C)(C)Cc2cc(OC)c(O)cc21`, 6.31 µM [rising, partial curve]; under `COCCn1c(=O)c(-c2cc(F)cc(F)c2)nc2cnc(N3CCOCC3)nc21`, 12.6 µM [rising, partial curve]. Under `N#CC1=C2SCN(c3ccccc3)CN2C(=O)CC1c1c(Cl)cccc1Cl` (configuration not stated) stands 25.1 µM [falling, single point]; under `COc1ccc(N2CSC3=C(C#N)C(c4cc(OC)c(OC)cc4OC)CC(=O)N3C2)c(OC)c1` (configuration not stated), 6.31 µM [rising, partial curve]; under `Cn1cc(-c2nc3cnc(Oc4ccccc4)nc3n(C)c2=O)c2ccccc21`, 6.31 µM [rising, partial curve]. Consider `O=c1cc(-c2ccccc2)oc2c1ccc1ccccc12`, for which the AC50 is 5.01 µM [rising, partial curve, poor fit]. The figure for `Cc1ccc(-n2c(C)nc3c(cnn3-c3ccc(F)cc3)c2=O)cc1C` is 0.631 µM [rising, full curve]; for `CCCCCCCCCCCCCC(=O)O[C@H](CC(=O)O)C[N+](C)(C)C` it is 25.1 µM [falling, partial curve]. The figure for `O=c1c2[nH]c3ccccc3c2ncn1CCCn1ccnc1` is 3.98 µM [falling, full curve, poor fit]; for `O=C(COc1c(F)c(F)c(C(F)(F)F)c(F)c1F)Nc1ccc(N2CCOCC2)c(Cl)c1` it is 0.251 µM [falling, partial curve]; for `Oc1ccc(-c2csc(NCc3ccco3)n2)cc1` it is 12.6 µM [falling, single point]. Under `CC(C)Nc1nc(C#N)nc(NC(C)C)n1` stands 10 µM [rising, partial curve]; under `Clc1ccc(-c2nc(-c3ccccn3)no2)cc1Cl`, 0.316 µM [rising, full curve]. Turning to `CC(C)(C)C1CCc2nc(NC(=O)Cc3cn4ccsc4n3)sc2C1` (configuration not stated), the AC50 was 12.6 µM [rising, single point].

Turning to `CC1CCCCC1N1CCN(C(=O)c2cccc(F)c2)CC1` (configuration not stated), the AC50 is 5.01 µM [falling, single point].

On to `COc1ccccc1-c1nnc(SCc2nc3ccccc3[nH]2)n1C`, for which the AC50 is 10 µM [rising, single point]. Under `c1ccc(-c2cc(-c3nn4c(-c5ccco5)nnc4s3)c3ccccc3n2)cc1` stands 7.94 µM [rising, partial curve]; under `COC(=O)[C@@]1(Cc2ccc(F)cc2)[C@@H]2[C@@H](CC(=O)[C@H]2CC(=O)C(=O)N2CCCC2)CN1C(=O)c1ccccc1`, 2 µM [rising, full curve]. Regarding `CCn1c(=N)n(CC(O)COc2cccc(C)c2)c2ccccc21` (configuration not stated), the AC50 was 20 µM [rising, partial curve, poor fit]. For `Cc1c2ccccc2c(C)c2c1ccc1ccccc12`, the AC50 is 25.1 µM [rising, partial curve]. For the compound `COCCCN1C(=O)c2[nH]nc(-c3ccccc3O)c2C1c1cccc(Cl)c1` (configuration not stated), the AC50 is 7.94 µM [rising, partial curve, poor fit].

Take `Cc1ccc(S(=O)(=O)c2cc3c(=O)n4ccccc4nc3n(CC3CCCO3)c2=N)cc1` (configuration not stated): the AC50 was 10 µM [rising, partial curve]. Under `O=C1CSC(c2ccccn2)N1c1ccccc1` (configuration not stated) stands 7.94 µM [falling, partial curve, poor fit]. The figure for `CCn1c(SCCC#N)nnc1-c1ccncc1` is 12.6 µM [falling, single point]; for `COc1cccc(C(=O)Nc2c3c(nn2-c2cccc(C)c2C)CS(=O)C3)c1OC` (configuration not stated) it is 15.8 µM [rising, partial curve]; for `COC(=O)[C@@]1(Cc2ccc(OC)cc2)[C@H]2c3cc(C(=O)N4CCCC4)n(CCCNc4ncc(C(F)(F)F)cc4Cl)c3C[C@H]2CN1C(=O)c1ccccc1` it is 0.126 µM [rising, full curve]. Under `CCCc1cc(=O)[nH]c(SCC(=O)CSc2nc(CCC)cc(=O)[nH]2)n1` stands 3.98 µM [falling, single point]; under `Cc1cc(C)n(/N=C/c2c[nH]c3ccccc23)c(=O)c1`, 0.398 µM [rising, partial curve]; under `COc1ccc(C(=O)/C(C)=N/O)cc1OC`, 12.6 µM [rising, partial curve]. As for `Cn1cnnc1SCc1ccc(C#N)cc1Cl`, the AC50 is 1 µM [rising, single point]. Under `Cc1cccc(Cn2c(SCCO)nc3c2c(=O)n(C)c(=O)n3C)c1` stands 10 µM [rising, partial curve]; under `Cn1c(=O)c2c(nc(CN3CCCCC3)n2Cc2c(F)cccc2Cl)n(C)c1=O`, 10 µM [rising, partial curve]. Turning to `CCOC(=O)c1c(NC(=O)Cc2cccs2)sc(C)c1C`, the AC50 is 5.01 µM [rising, full curve]. The figure for `CCCSc1nc(C)c(-c2csc(C(C#N)=C3CCCC3)n2)cc1C#N` is 25.1 µM [rising, single point].

On to `COc1cccc(C(=O)CSc2nnnn2C)c1`, for which the AC50 was 5.01 µM [falling, partial curve]. The figure for `Cc1cccn2c(=O)c3cc(C#N)c(=O)n(CCCN4CCOCC4)c3nc12` is 10 µM [rising, partial curve]. As for `Cc1ccc2nc3c(cc(C(N)=S)c(=N)n3CCCOC(C)C)c(=O)n2c1`, the AC50 is 12.6 µM [rising, partial curve]. Under `COCCN1Cc2cccc(C(=O)Nc3cc(OC)ccc3OC)c2C1=O` stands 12.6 µM [rising, single point]; under `O=c1cc(Cn2ccnc2)c2cc3c(cc2o1)CCC3`, 20 µM [rising, single point]; under `COc1ccc2cc3cc(C(=O)NCC4COc5ccccc5O4)oc3nc2c1` (configuration not stated), 12.6 µM [rising, partial curve]. Under `CC(=O)NCCn1c(SCC(=O)NCCC2=CCCCC2)nc2ccccc2c1=O` stands 0.00794 µM [rising, full curve, poor fit]; under `O=C(OCC(COC(=O)c1ccccc1)(COC(=O)c1ccccc1)COC(=O)c1ccccc1)c1ccccc1`, 1.26 µM [falling, full curve, poor fit]; under `CCOC(=O)Cc1csc(NC(=O)CS(=O)(=O)Cc2ccccc2)n1`, 25.1 µM [rising, single point]. The figure for `CCSc1ncc(C#N)c(=O)[nH]1` is 0.251 µM [falling, full curve]; for `CCCNC(=O)c1cccc(COCC(F)(F)C(F)F)c1` it is 0.631 µM [rising, full curve]; for `CCOC1OC2C(CO)OC(n3cnc4c(N)ncnc43)C2O1` (configuration not stated) it is 20 µM [rising, single point]. As for `CC(C)C[C@@H](CC(=O)N[C@@H](CCC(=O)O)CC(=O)O)NC(=O)[C@@H]1CCCC[C@H]1NC(=O)C[C@H](CCCN)NC(=O)C[C@H](CO)NC(=O)[C@@H]1CNCC[C@H]1N`, the AC50 is 6.31 µM [falling, partial curve, poor fit]. The figure for `CCNc1nc(N)nc(Oc2ccc(OCCOc3ccccc3)nn2)n1` is 10 µM [rising, partial curve]; for `CCc1ccc2[nH]c(=O)c(CN(CCCN3CCOCC3)C(=O)Nc3ccc(F)cc3)cc2c1` it is 10 µM [rising, partial curve]; for `CN(C)c1nccc(Nc2ccccc2)c1C#N` it is 10 µM [rising, single point].

With `CCc1cc(=O)oc2cc(OC(C)=O)cc(OC(C)=O)c12`, the AC50 is 10 µM [rising, partial curve].

Consider `Cn1c(=O)c2c(nc(SCCCC#N)n2Cc2c(F)cccc2Cl)n(C)c1=O`, for which the AC50 was 10 µM [rising, partial curve]. Under `O=C(CC1(O)CCCCC1)OC1CCCC1` stands 2.51 µM [rising, single point]. Under `COc1ccccc1-c1nnc2sc(COc3ccc(F)cc3)nn12` stands 1.26 µM [rising, partial curve]; under `CC(C)CNS(=O)(=O)c1ccc(CCC(=O)O)cc1`, 25.1 µM [rising, single point]. The figure for `CCCn1c(Nc2nc3ccccc3n2C)nc2ccccc21` is 3.98 µM [rising, single point]; for `CCN(Cc1cc2ccccc2[nH]c1=O)C(=O)C1CCCCC1` it is 25.1 µM [rising, single point]. In the case of `COc1ccccc1CCn1c(=O)c(-c2ccc(Cl)cc2)nc2cncnc21`, the AC50 was 12.6 µM [rising, partial curve]. Under `COc1ccc(S(=O)(=O)CCC(=O)NCCc2ccc(S(N)(=O)=O)cc2)cc1` stands 0.316 µM [falling, full curve, poor fit]; under `Cc1ccc(Cn2nnc3c(=O)[nH]c(C4CCN(C(=O)c5cccs5)CC4)nc32)cc1`, 12.6 µM [rising, single point]; under `Cc1c(C(=O)OC2CCCC2C)[nH]c2c1C(=O)CCC2` (configuration not stated), 5.01 µM [rising, partial curve]. The figure for `COC(=O)[C@H](C)NC(=O)Nc1ccc(OC)c(OC)c1` is 20 µM [falling, partial curve]; for `COc1ccc(C(=O)Nc2cc(-c3nn4c(C)nnc4s3)ccc2C)cc1` it is 7.94 µM [rising, partial curve]; for `COCCNc1nc(-c2ccc(N(C)C)cc2)nc2ccccc12` it is 5.01 µM [rising, partial curve]. With `CC1Cc2nc(SCC(=O)Nc3ccc(F)cc3F)n(C)c(=O)c2S1` (configuration not stated), the half-maximal activity concentration (AC50) was 5.01 µM [falling, single point].

(Values after PubChem BioAssay AID662 (National Center for Advancing Translational Sciences (NCATS), 2007).)
